Results are given in words; binding and its absence hold for the method and conditions named. Binding seen in cells or lysates may run through a third protein. Some results given as binding are weak or reduced against the parent protein; the word gives no strength.

Chains of the proteins cited; added tags and fusions are not shown.
UniProt Q13547: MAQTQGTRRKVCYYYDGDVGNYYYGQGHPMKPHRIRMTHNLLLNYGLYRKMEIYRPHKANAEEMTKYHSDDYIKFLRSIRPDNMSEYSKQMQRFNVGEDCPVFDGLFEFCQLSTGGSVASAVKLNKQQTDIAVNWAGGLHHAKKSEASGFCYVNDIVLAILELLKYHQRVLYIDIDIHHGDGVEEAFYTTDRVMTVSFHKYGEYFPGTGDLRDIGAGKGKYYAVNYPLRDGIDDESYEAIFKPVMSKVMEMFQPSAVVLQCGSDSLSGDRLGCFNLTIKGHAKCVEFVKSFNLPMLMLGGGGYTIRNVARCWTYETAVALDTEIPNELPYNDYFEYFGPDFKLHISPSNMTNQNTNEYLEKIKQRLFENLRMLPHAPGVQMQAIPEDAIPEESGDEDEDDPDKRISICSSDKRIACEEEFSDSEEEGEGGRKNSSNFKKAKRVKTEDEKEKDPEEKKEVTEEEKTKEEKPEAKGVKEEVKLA
UniProt Q92769: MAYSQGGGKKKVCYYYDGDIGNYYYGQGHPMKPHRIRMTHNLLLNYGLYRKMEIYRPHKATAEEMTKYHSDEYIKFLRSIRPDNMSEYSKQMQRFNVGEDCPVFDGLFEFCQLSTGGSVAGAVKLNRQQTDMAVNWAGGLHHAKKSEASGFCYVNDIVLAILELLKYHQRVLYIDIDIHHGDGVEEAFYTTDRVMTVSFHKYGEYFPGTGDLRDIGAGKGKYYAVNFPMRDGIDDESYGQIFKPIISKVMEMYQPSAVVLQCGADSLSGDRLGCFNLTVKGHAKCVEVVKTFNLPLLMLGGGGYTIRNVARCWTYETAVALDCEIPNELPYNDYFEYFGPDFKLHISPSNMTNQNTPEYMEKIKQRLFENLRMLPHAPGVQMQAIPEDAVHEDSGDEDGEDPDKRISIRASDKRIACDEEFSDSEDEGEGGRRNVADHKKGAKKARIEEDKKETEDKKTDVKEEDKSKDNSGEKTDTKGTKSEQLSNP

The target in this assay is T1, SIAH2 (seven-in-absentia homolog 2, E3 ubiquitin ligase), endogenous (human (endogenous in HEL)) (UniProt O43255).
T1 sequence: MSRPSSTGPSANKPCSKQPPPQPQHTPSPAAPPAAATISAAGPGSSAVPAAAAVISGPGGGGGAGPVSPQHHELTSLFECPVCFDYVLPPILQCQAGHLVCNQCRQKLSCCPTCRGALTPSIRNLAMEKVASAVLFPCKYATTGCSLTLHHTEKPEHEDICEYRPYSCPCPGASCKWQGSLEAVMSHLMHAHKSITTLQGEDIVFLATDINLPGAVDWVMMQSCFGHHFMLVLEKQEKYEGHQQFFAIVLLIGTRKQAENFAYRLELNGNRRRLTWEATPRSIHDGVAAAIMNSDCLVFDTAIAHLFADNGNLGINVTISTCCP
The assay can be described thus: co-IP; anti-SIAH2 (sc-81787) or mouse IgG with 1 mg HEL lysate overnight at 4 °C, protein G Sepharose, one high-salt PBS wash and two PBS washes, immunoblot; cells treated beforehand with 5 nM FK228 or 5 µM MERCK60 for 48 h (Fig. 3f) or with 50 nM bortezomib for 6 h (Fig. 4c). On the technique in general: A western blot detects proteins with antibodies after separation by electrophoresis.

Turning to “HDAC1 (histone deacetylase 1), endogenous (from UniProt Q13547 1-482) (enzyme)”, the binding result is “binds”.

In the case of “HDAC2 (histone deacetylase 2), endogenous (from UniProt Q92769 1-488) (enzyme)”, the binding entry was “binds”.

The record behind these values is article PMC12394589.
